The source of these data is the supplement of paper PMC12889115.

This test concerns Salmonella enterica serovar Typhimurium SL1344. The experiment in a line: bacterial growth OD600 after 18 h with compound and polymyxin B; higher = more bacterial growth (less inhibition). To be noted: 50 µM, Mueller-Hinton broth.

The other results are listed elsewhere or left out. Values are raw readings; no control value is given beside them.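 First-pass screen: polymyxin B was added at a level that permeabilizes the Salmonella outer membrane while sparing the inner membrane. DMSO wells, with and without polymyxin B, defined maximum growth. Because plates differed from one another, each plate's data were ranked separately and the compounds with the lowest OD600 were carried forward as hits.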

On to `O=C1NCCN1CCNC1CCN(c2ccc(C(=O)N3CCc4ccccc4C3)cc2)CC1`, for which the “bacterial growth OD600” value (polymyxin B 0.75 µg/mL) came to 0.876.
The same measure, in the same setting: the value for `O=C(CCc1nnc(-c2ccc(-c3ccccc3)cc2)o1)N1CCCCCCC1` was -0.001.
For `Cc1cc(CN(C)C(=O)C2CCC(=O)N(CCc3cccc(F)c3)C2)on1` (configuration not stated), where the note is “polymyxin B 1 µg/mL”, the “bacterial growth OD600” value was determined as 0.814.
The same measure, in the same setting: to `COc1ccc(CN2CCN(Cc3ccc(F)cc3F)CC2CCO)c(C)c1C` (configuration not stated) belongs 0.915; to `CCOC(=O)C1(Cc2ccccc2C(F)(F)F)CCN(C(=O)C2=C(C)OCCO2)CC1`, 1.
On the same count and under the same terms, the value for `COc1cccc(C(C)N(C)C(=O)c2coc(COc3cccc(F)c3F)n2)c1` (configuration not stated) was 0.471.
Same read-out and setting: to `COC1CCN(C(=O)CC(c2cccc(O)c2)c2cccc(Cl)c2)CC1` (configuration not stated) belongs 0.665.
Take `O=C(c1ccco1)N1CCC2(CCCN(Cc3ccccc3F)C2=O)C1` (configuration not stated): under “polymyxin B 0.75 µg/mL”, the “bacterial growth OD600” value is 0.8.
As to `O=C(/C=C/c1ccccc1)NCC1CC(Cc2ccc(F)cc2)=NO1` (configuration not stated), the “bacterial growth OD600” value (polymyxin B 0.75 µg/mL) was found to be 0.808.
As for `Cc1cc(C)c(C(=O)N2CCCC(CCc3ccccc3C)C2)c(=O)[nH]1` (configuration not stated), under “polymyxin B 0.75 µg/mL”, the “bacterial growth OD600” value was determined as 0.753.
On the same count and under the same terms, the value for `O=C(Nc1ccc(Oc2ccccc2)nc1)C1CCN(CCCn2cccn2)CC1` was 0.791; that for `Cc1ccc2c(c1)CN(Cc1c[nH]nc1-c1ccc(F)cc1)CC(C)O2` (configuration not stated) was 0.891.
Regarding `O=C(CCc1ccccc1)Nc1ccnn1C1CCN(C(=O)c2cscn2)CC1`, the “bacterial growth OD600” value (polymyxin B 1 µg/mL) is 0.935.
On the same count and under the same terms, to `CN(Cc1cccnc1)c1ccc(-c2nc(-c3ccccc3F)no2)cn1` belongs 0.543; to `Cc1cnc(C)c(N2CCN(C(=O)CC3C(=O)NCCN3CCC(C)C)CC2)n1` (configuration not stated), 1.14.
For `COc1cccc(-c2n[nH]c3c2CN(C(=O)c2cccnc2OC)CC3)c1`, the “bacterial growth OD600” value (polymyxin B 0.75 µg/mL) came to 0.901.
Regarding `COc1ccc(CN2CCOc3ccc(C(O)CCc4ccccc4)cc3C2)c(OC)c1OC` (configuration not stated), for the setting “polymyxin B 0.75 µg/mL”, the “bacterial growth OD600” value turned out to be 0.009.
The same measure, in the same setting: to `O=C1CCC(CCNCCOc2ccc(F)cc2)N1Cc1ccccc1OC(F)(F)F` (configuration not stated) belongs 0.998.
On to `CC(C)/C=C/CN1CCC(Oc2ccccc2C(=O)N2CCCC2)CC1`, for which the “bacterial growth OD600” value (polymyxin B 1 µg/mL) was determined as 1.03.
The same measure, in the same setting: the value for `Cc1nc(C)c(C(=O)N2CC[C@@H](N3CCN(c4ccccc4F)CC3)[C@H](O)C2)s1` was 0.906.
Turning to `O=C1CCCN1CCCC(=O)N1CCCC(CCc2ccc(F)cc2F)C1` (configuration not stated), the “bacterial growth OD600” value (polymyxin B 0.75 µg/mL) turned out to be 0.792.
Still for that read-out and setting: the value for `Cc1ccoc1C(=O)NC1CC(C)(C)Cc2nc(N3CCOCC3)ncc21` (configuration not stated) was 0.8.
Take `Cc1cnc(CNC(=O)c2coc(COc3ccccc3)n2)cn1`: the “bacterial growth OD600” value (polymyxin B 0.75 µg/mL) worked out at 0.834.
For `CCOC(=O)CNC(=O)N1CCCC(C(=O)c2cccc(Cl)c2)C1` (configuration not stated), the “bacterial growth OD600” value (polymyxin B 1 µg/mL) amounted to 0.842.
On to `COCc1ccc([C@@H]2C[C@H]3CN(CCc4ccccc4)C(=O)[C@]34CCCN24)o1`, for which the “bacterial growth OD600” value (polymyxin B 1 µg/mL) was determined as 0.746.
With `COc1ccc(-c2cnnc(NCC3CCOCC3)n2)cc1F`, the “bacterial growth OD600” value (polymyxin B 0.75 µg/mL) was 0.358.
The same measure, in the same setting: to `COCCN(C)C(=O)CC1(c2ccc(-c3ccccc3)cc2)CC(=O)N(C2CC2)C1=O` (configuration not stated) belongs 0.793.
Consider `OC(Cc1ccccc1)c1ccc2c(c1)CN(Cc1cc(F)cc(F)c1)CCO2` (configuration not stated), for which the “bacterial growth OD600” value (polymyxin B 0.75 µg/mL) is -0.003.
`O=C(c1coc(COc2cccc(F)c2)n1)N1CCN2CCCC2C1` (configuration not stated): for the setting “polymyxin B 1 µg/mL”, the “bacterial growth OD600” value amounted to 0.923.
As for `CC(=O)NCCC(=O)N1CCCC(CNC(=O)c2ccc(-c3ccccc3)cc2)C1` (configuration not stated), for the setting “polymyxin B 1 µg/mL”, the “bacterial growth OD600” value amounted to 0.957.
Regarding `CCn1cc(CN(CCOC)CC2CCCN(C3Cc4ccccc4C3)C2)cn1` (configuration not stated), where the note is “polymyxin B 0.75 µg/mL”, the “bacterial growth OD600” value was 0.825.
On the same count and under the same terms, the value for `CN(C)c1ncc2c(n1)CCCC2NC1CCCCC1` (configuration not stated) was 0.974.
